Experimental findings from PMC2855708 are described below.

Chains of the proteins cited; added tags and fusions are not shown.
UniProt Q62083: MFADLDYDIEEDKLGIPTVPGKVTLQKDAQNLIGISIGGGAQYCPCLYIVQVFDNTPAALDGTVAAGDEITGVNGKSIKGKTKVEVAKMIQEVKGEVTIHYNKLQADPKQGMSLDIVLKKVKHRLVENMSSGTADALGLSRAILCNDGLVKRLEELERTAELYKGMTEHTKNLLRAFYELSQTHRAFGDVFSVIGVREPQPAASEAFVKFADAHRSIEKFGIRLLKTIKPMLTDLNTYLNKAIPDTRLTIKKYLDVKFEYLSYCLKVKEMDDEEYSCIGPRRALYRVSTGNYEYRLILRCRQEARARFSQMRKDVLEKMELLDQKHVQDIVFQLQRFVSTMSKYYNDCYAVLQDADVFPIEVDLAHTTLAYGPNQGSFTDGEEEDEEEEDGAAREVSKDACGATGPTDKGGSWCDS

These are yes or no findings as the source states them, for the method shown. In cells and extracts the contact can be indirect. Some entries that bind do so weakly or less than the wild type. For some of these results: Where a sequence is shown, tags or fusion partners need not be part of it.

One test addresses T1, mNephrin-flag (mouse) (UniProt Q9QZS7).
T1 sequence: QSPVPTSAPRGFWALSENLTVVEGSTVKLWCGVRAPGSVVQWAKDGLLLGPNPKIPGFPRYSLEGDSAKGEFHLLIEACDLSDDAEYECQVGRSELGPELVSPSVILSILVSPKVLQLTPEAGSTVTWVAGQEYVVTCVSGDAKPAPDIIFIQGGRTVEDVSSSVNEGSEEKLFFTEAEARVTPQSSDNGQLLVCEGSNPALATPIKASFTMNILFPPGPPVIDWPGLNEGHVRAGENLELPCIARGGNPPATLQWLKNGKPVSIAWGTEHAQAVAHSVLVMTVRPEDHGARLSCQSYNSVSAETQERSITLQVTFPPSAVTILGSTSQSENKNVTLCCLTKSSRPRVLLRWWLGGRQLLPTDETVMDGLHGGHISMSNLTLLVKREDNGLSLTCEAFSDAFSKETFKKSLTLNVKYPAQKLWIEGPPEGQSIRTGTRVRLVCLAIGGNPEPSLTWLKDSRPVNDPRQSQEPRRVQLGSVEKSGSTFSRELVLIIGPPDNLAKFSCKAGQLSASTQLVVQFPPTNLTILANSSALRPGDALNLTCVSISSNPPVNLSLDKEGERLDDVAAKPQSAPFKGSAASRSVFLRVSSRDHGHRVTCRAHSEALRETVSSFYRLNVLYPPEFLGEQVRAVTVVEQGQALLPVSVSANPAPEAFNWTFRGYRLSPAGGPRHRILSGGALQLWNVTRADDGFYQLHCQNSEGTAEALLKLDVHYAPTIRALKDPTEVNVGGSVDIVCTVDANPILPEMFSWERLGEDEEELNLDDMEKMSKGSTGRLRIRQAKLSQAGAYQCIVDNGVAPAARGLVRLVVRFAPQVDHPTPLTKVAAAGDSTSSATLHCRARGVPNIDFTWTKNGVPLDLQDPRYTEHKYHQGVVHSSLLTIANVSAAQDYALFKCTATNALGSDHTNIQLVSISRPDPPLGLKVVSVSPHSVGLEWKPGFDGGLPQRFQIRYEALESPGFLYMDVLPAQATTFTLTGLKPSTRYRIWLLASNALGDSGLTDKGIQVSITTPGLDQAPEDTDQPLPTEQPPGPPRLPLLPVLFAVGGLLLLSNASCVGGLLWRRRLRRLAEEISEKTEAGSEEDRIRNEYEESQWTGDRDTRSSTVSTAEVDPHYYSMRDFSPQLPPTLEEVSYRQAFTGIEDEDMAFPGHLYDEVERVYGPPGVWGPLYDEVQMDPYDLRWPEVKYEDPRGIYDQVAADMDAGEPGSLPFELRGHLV
Description: co-IP; HEK 293T cells transiently transfected, stimulated with PMA for 0, 5 and 15 min; lysed in RIPA buffer; Nephrin-flag precipitated with Flag-beads at 4°C, washed 5 times with RIPA buffer; blotted for GFP, Myc or Flag.

The target of the next test is T2, hNephrin-flag (human) (UniProt O60500).
T2 sequence: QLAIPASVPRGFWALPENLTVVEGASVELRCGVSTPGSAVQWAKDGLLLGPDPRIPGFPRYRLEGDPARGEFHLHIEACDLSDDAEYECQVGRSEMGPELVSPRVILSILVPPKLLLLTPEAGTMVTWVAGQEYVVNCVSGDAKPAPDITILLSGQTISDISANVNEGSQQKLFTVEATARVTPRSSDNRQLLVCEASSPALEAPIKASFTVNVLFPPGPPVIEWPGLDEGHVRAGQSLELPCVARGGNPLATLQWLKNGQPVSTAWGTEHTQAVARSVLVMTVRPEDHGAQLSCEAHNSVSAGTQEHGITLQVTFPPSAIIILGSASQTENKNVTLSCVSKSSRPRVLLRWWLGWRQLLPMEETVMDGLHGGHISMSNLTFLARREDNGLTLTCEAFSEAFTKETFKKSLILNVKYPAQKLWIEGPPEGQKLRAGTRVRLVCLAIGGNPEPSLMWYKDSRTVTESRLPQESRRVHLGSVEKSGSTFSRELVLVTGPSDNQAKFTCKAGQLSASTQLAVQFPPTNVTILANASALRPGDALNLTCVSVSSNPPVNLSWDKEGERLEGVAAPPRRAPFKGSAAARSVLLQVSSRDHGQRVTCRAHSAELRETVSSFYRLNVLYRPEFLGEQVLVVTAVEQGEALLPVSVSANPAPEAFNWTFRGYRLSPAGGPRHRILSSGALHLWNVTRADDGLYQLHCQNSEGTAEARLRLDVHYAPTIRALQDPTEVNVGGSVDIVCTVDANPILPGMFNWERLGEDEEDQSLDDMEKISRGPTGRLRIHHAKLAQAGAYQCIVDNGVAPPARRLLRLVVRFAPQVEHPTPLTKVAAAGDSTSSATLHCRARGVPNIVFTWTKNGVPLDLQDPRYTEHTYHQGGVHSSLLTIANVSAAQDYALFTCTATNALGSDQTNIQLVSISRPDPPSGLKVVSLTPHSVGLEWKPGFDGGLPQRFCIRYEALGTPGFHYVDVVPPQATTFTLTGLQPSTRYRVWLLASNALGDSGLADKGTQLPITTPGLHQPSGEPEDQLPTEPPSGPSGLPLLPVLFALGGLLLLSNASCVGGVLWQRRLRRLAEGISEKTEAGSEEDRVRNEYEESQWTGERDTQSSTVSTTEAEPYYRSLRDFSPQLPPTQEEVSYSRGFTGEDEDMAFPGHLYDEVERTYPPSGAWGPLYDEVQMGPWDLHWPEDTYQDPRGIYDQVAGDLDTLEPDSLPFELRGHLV
The test is described as above.

Test [1] has as its target endogenous PICK1 (murine podocytes) (mouse (endogenous in murine podocytes)) (UniProt Q62083). Description: co-IP; PKCα+/+ murine podocytes treated with PMA for 0, 5 and 15 min; 500 µg total cell lysate with anti-nephrin or anti-PICK1 antibody and sepharose-A beads in IP-buffer (25 mM Tris-HCl pH 7.5, 1 mM DTT, 30 mM MgCl2, 40 mM NaCl, 0.5% NP-40) overnight at 4°C; blotted for PKCα, nephrin and PICK1.

Test [2] has as its target T3, endogenous nephrin (murine podocytes) (mouse (endogenous in murine podocytes)) (UniProt Q9QZS7).
T3 sequence: T1 sequence
Described as above.

On to “PKCα-GFP (from UniProt P17252 1-672) (enzyme)”, for which the binding entry with mNephrin-flag (mouse) and with hNephrin-flag (human) was “binds” in each case.
Consider “endogenous PKCα (murine podocytes) (from UniProt P20444 1-672) (enzyme)”, for which the binding entry in test [1] and in test [2] was “binds” in each case.
